# Test results as given in PubChem BioAssay AID540276 (National Center for Advancing Translational Sciences (NCATS), 2011).
# Out of some 300,000 compounds screened, about 5,400 (1.8%) were called active. The shares of active, inactive and inconclusive entries below differ from those in the screen. The call rests on the fitted dose curve; tested in HEK293 cells. A potency beside an inconclusive call is a rough fit, not a confirmed value.
# Assay: qHTS for inhibitors of binding or entry into cells for Marburg Virus
# Details: Marburg virus pseudotyped entry inhibition, cell reporter; activity change, negative = inhibition: at 37.8 µM (top of the series) unless noted
# On the % scale 0 is the no-effect control and ±100 the full control effect; potency means the concentration at half of the fitted maximal effect.
Structure (SMILES),Potency,"activity change, negative = inhibition"
OCCN1CCN(C2Cc3cc(Cl)ccc3Sc3ccc(Cl)cc32)CC1 (configuration not stated) (tested in a mixture with another compound),"inconclusive: 35.5 µM [inhibitor, single point]",
C/C(=N/NC(=O)COc1ccc(C(C)(C)C)cc1)c1ccc(N2CCOCC2)cc1,,inactive: -4.31%
Cc1ccc(C)c(C2=NNC(=NCc3ccccc3)SC2)c1,"inconclusive: 17.8 µM [inhibitor, single point]",
CCCC1CC(CSC(=N)N)OC1=O (configuration not stated),"inconclusive: 5.62 µM [inhibitor, single point]",
CC(C)(C)Nc1oc(-c2ccccc2)nc1-c1ccccc1F,"inconclusive: 0.335 µM [activator, partial curve, poor fit]",
COc1ccc(-n2c(=S)[nH]c3sc(-c4ccccc4)cc3c2=O)c(OC)c1,"inconclusive: 6.31 µM [inhibitor, single point]",
COc1ccc(S(=O)(=O)NCCc2nnc3ccc(SCC(=O)Nc4nc(C)cs4)nn23)cc1,"inconclusive: 0.112 µM [inhibitor, full curve, poor fit]",
CCOC(=O)C1(Cc2ccccc2)CCCN(Cc2ccc(OCCO)cc2)C1 (configuration not stated),"inconclusive: 35.5 µM [inhibitor, partial curve, poor fit]",
O=C(COc1ccc2c3c(c(=O)oc2c1)CCC3)N1CCCCC1,"inconclusive: 7.94 µM [activator, partial curve, poor fit]",
CCN1CCCC1CN(Cc1cc2c(C)cc(C)cc2[nH]c1=O)C(=O)NC1CCCCC1 (configuration not stated),"inconclusive: 14.1 µM [inhibitor, single point]",
Cc1ccc(NC(=O)CSc2nc3ccccc3c(=O)n2CCCN2CCCCC2)cc1Cl,"inconclusive: 14.1 µM [inhibitor, single point]",
NC1=NN(c2ccccc2)C(=O)C1,"inconclusive: 35.5 µM [inhibitor, single point]",
COc1ccc(-c2cc(-c3ccccc3)c(C#N)c(S(C)=O)n2)cc1 (configuration not stated),"inconclusive: 6.51 µM [inhibitor, partial curve, poor fit]",
CC(C)C(C)NC(=O)CN1C(=O)NC2(CCCc3ccccc32)C1=O (configuration not stated),"inconclusive: 35.5 µM [activator, single point]",
COc1cccc(-c2cc(C(=O)Nc3cc(C)n(Cc4ccc(Cl)cc4)n3)no2)c1,"inconclusive: 16.4 µM [inhibitor, single point]",
Cc1ccc(CCNC(=O)C23C[C@H]4C[C@@H](C2)CC(n2nnc(C)n2)(C4)C3)cc1,,inactive: -17.6% [at 46.1 µM]
COc1ccc(-c2oc3ncnc(N)c3c2-c2ccccc2)cc1,"inconclusive: 6.51 µM [inhibitor, single point]",
O=C1CC(C(=O)O)C(c2ccccc2)c2ccccc21 (configuration not stated),,inactive: 2.17% [at 46.1 µM]
Cc1ccc(C)c(N2CCN(S(=O)(=O)c3c(C)noc3/C=C/N(C)C)CC2)c1,active: 12.6 µM,
Cc1ccc(SCC(=O)Nc2ccc3oc(-c4cccc(Cl)c4)nc3c2)cc1,"inconclusive: 5.01 µM [activator, full curve, poor fit]",
O=C(Nc1cccc(F)c1)N1CC=C(n2c(=O)[nH]c3ccccc32)CC1,,inactive: -13.4%
CC(C)(C)N1C(=O)c2ccc(C(=O)Nc3ccc(O)cc3)cc2C1=O,"inconclusive: 14.1 µM [inhibitor, single point]",
O=C(Cn1ncc2c3ccccc3n(Cc3ccc(F)cc3)c2c1=O)NCc1ccccn1,,inactive: 8.9% [at 46.1 µM]

# Quoted at random: 3 compounds from above.
Structure (SMILES),Potency,"activity change, negative = inhibition"
Cc1ccc(CCNC(=O)C23C[C@H]4C[C@@H](C2)CC(n2nnc(C)n2)(C4)C3)cc1,,inactive: -17.6% [at 46.1 µM]
Cc1ccc(C)c(N2CCN(S(=O)(=O)c3c(C)noc3/C=C/N(C)C)CC2)c1,active: 12.6 µM,
CCN1CCCC1CN(Cc1cc2c(C)cc(C)cc2[nH]c1=O)C(=O)NC1CCCCC1 (configuration not stated),"inconclusive: 14.1 µM [inhibitor, single point]",

# Remaining list, next part

Structure (SMILES),Potency,"activity change, negative = inhibition"
CC1=CC(C)(C)N=C(Nc2ccc(C)cc2)S1,"inconclusive: 2.59 µM [inhibitor, full curve, poor fit]",
CC(C)CN(C(=O)COC(=O)c1cc2ccccc2cc1O)c1c(N)n(Cc2ccccc2)c(=O)[nH]c1=O,"inconclusive: 7.94 µM [inhibitor, partial curve]",
Cc1cc(-c2ccc(C)c(S(=O)(=O)NCC3CCN(Cc4ccccc4F)CC3)c2)on1,"inconclusive: 7.94 µM [inhibitor, partial curve, poor fit]",
CC(CCc1ccccc1)NC(=O)CCNS(=O)(=O)c1ccccc1 (configuration not stated),"inconclusive: 3.55 µM [inhibitor, partial curve, poor fit]",
C=CCOC(=O)c1sc(NC(=O)c2ccco2)nc1C,,inactive: -27.8%
CC1CN(C(C)C(=O)NNC(=O)c2ccc(F)cc2)CC(C)O1 (configuration not stated),,inactive: 3.68% [at 46.1 µM]
O=C(CSc1nncs1)Nc1nnc(-c2ccccc2)o1,"inconclusive: 35.5 µM [activator, single point]",
c1ccc2c(c1)N1CCCN=C1N2CCN1CCCCC1,active: 13 µM,
COc1ccccc1C(=O)N1CCN(c2cccc(C(F)(F)F)c2)CC1,"inconclusive: 5.01 µM [inhibitor, full curve]",
Cc1cccc(N(C(=O)c2snc(C(N)=O)c2N)C(C(=O)NCC2CCCO2)c2c[nH]c3ccccc23)c1 (configuration not stated),"inconclusive: 15.8 µM [inhibitor, single point]",
O=C(C[n+]1cc(Br)cc2ccccc21)c1ccc(Cl)cc1,,inactive: 15.9%
Cc1ccc(OCCSc2ncnc3nc[nH]c23)cc1,"inconclusive: 35.5 µM [inhibitor, single point]",
Cc1nc(-n2nc(C)c(CCC(C)C)c2C)sc1C(=O)Nc1ccc(Cl)cc1,,inactive: 11.5% [at 46.1 µM]
Clc1ccc(Nc2ccc(Cl)nn2)cc1,,inactive: -0.837% [at 14.2 µM]
CC(C)Cc1nc(SCC(=O)N2CC(C)OC(C)C2)c2c(=O)n(C)c(=O)n(C)c2n1 (configuration not stated),,inactive: -2.19%
CCCS(=O)(=O)c1c(S(=O)(=O)CCC)c2c(N)cccn2c1C(=O)c1ccc(OC)cc1,"inconclusive: 22.4 µM [inhibitor, single point]",
CC[C@@H]1Cc2cc(O)ccc2C2=C1c1ccc(O)cc1C[C@H]2CC,active: 35.5 µM,
CCN(CC)S(=O)(=O)c1ccc(N2CCN(S(=O)(=O)c3ccc4c(c3)OCCO4)CC2)nc1,"inconclusive: 35.5 µM [inhibitor, single point]",
CCc1cccc(CC)c1NC(=O)NC1CCCCC1,"inconclusive: 3.55 µM [inhibitor, full curve]",
O=C(NC1CCCCCC1)C1CCN(S(=O)(=O)c2ccc(F)cc2)CC1,"inconclusive: 20.6 µM [activator, single point]",
CC(C)(C)n1nnnc1C(c1cccs1)N(Cc1cccnc1)Cc1ccco1 (configuration not stated),"inconclusive: 11.6 µM [inhibitor, partial curve, poor fit]",
O=C1NC(=S)/C(=C\c2ccc(-c3ccccc3Cl)o2)S1,,inactive: -16.1%
CCCn1c(-c2cccc([N+](=O)[O-])c2)nc2c1c(=O)[nH]c(=O)n2Cc1ccccc1,"inconclusive: 10 µM [inhibitor, partial curve, poor fit]",

Structure (SMILES),Potency,"activity change, negative = inhibition"
COc1ccccc1C(=O)N1c2ccccc2Sc2ccccc21,"inconclusive: 15.8 µM [inhibitor, single point]",
O=[N+]([O-])c1ccc(Nc2ccc(Cl)cc2)nc1,"inconclusive: 22.4 µM [inhibitor, single point]",
COc1cc(C(=O)NCCOc2cccc3cccnc23)cc(OC)c1OC,"inconclusive: 3.55 µM [activator, single point]",
Fc1ccccc1CSc1nnc(-c2ccccc2)o1,"inconclusive: 3.26 µM [activator, full curve, poor fit]",
O=C1NC(c2ccc(O)cc2)Nc2ccccc21 (configuration not stated),"inconclusive: 0.282 µM [inhibitor, full curve, poor fit]",
CCCCOC(=O)C1=C(C)NC(=O)NC1c1ccc([N+](=O)[O-])s1 (configuration not stated),"inconclusive: 35.5 µM [inhibitor, single point]",
COCCn1c(SCC(=O)N2CCCCC2)nc2ccccc2c1=O,,inactive: 2.61%
CC(C)(C)C(=O)NCC12C=CC(O1)C1C(=O)N(c3ccccc3)C(=O)C12 (configuration not stated),,inactive: -4.1%
O=C(COc1ccc(Br)cc1)Nc1ccc(-c2nnc(-c3ccco3)o2)cc1,"inconclusive: 6.51 µM [activator, single point]",
Fc1cccc(F)c1-n1c(CN2CCCCC2)csc1=S,active: 6.31 µM,
O=C1CC(c2cc([N+](=O)[O-])ccc2Cl)c2c(ccc3ccccc23)N1 (configuration not stated),"inconclusive: 25.1 µM [inhibitor, single point]",
COc1ccc(NC(=O)C2Cc3cc(S(=O)(=O)N4CCCCC4)ccc3N2C(C)=O)cc1Cl (configuration not stated),"inconclusive: 6.31 µM [inhibitor, partial curve, poor fit]",
Cc1ccsc1C(=O)OCC(=O)c1ccc[nH]1,"inconclusive: 6.31 µM [activator, single point]",
CCOC(=O)c1ccc(NC(=O)CCc2nc(-c3ccccc3)no2)cc1,"inconclusive: 2.91 µM [inhibitor, partial curve, poor fit]",
COc1ccccc1OCC(=O)NNC(=O)Nc1ccccc1,,inactive: 4.41% [at 46.1 µM]
Cc1ccccc1NC(=O)c1sc2nc3c(cc2c1N)CN(Cc1ccccc1)CC3,,inactive: -18.2% [at 46.1 µM]
CCN1CCN(c2ccc(S(=O)(=O)N3CCCCC3)cc2NC(=O)c2cc3ccccc3o2)CC1,"inconclusive: 1.41 µM [activator, partial curve, poor fit]",
CCOC(=O)Nc1sc2nc(C)cc(C)c2c1-n1cccc1,"inconclusive: 11.2 µM [inhibitor, single point]",
Cc1cccnc1NC(=O)C1CC(=O)N(c2ccc3c(c2)OCCO3)C1 (configuration not stated),"inconclusive: 1.26 µM [inhibitor, single point]",
COC(=O)c1cc(NC(=O)C(C)c2ccc(CC(C)C)cc2)ccc1O (configuration not stated),"inconclusive: 16.4 µM [inhibitor, partial curve]",
O=C(CSc1nnc(-c2ccco2)n1Cc1ccco1)Nc1ccccc1,,inactive: -7.33%

# A different layout for some results above:
Structure (SMILES)	Potency	activity change, negative = inhibition
CC1=CC(C)(C)N=C(Nc2ccc(C)cc2)S1	inconclusive: 2.59 µM [inhibitor, full curve, poor fit]	
CC(C)CN(C(=O)COC(=O)c1cc2ccccc2cc1O)c1c(N)n(Cc2ccccc2)c(=O)[nH]c1=O	inconclusive: 7.94 µM [inhibitor, partial curve]	
